The assay concerns Werner syndrome hMSCs (WRN-/-). Description: relative cell density (fold change vs vehicle control); higher = more proliferation (geroprotective). The following applies: concentration (umol/L): 1, 6 days.

Several values for one entry are separate records, joined by “and”; a condition that tells them apart may be missing. Identical values can stand only once. This is one part of the list. Some well-known active drugs show little effect in this data set, so a weak value is uncertain.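 The cells are human mesenchymal stem cells that lack the Werner syndrome gene and age prematurely. Growth was tracked by automated live-cell imaging in three biological repeats, and the twenty drugs that most raised growth over vehicle were taken forward, with no fixed cutoff stated.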 Numbered stars: 1 amine (or outer) side, 2 acyl side, 3 side chain; on linkers, the order of the positions; unused ones are H or OH. Bridge positions count the residues as written; N and C are the ends. Square brackets hold non-standard residues; d marks the D form. Peptide text beside a SMILES is read from it. * marks the point of attachment. pTerphenylCO(4''-OnC5H11) = CCCCCOc1ccc(-c2ccc(-c3ccc(C(=O)*)cc3)cc2)cc1; Orn(4R-OH,5R-OH) = O=C([C@H](C[C@@H](O)[C@@H](O)N[*:3])N[*:1])[*:2]; hTyr(3S-OH,4S-OH) = N[C@H](C(=O)O)[C@H](O)[C@@H](O)c1ccc(O)cc1; Pro(3S-OH,4S-Me) = C[C@H]1CN[C@H](C(=O)O)[C@H]1O; Hyp = O=C(O)[C@@H]1C[C@@H](O)CN1

As for `CC(C)NC[C@H](O)COc1ccc(CCOCC2CC2)cc1`, the relative cell density (vehicle: DMSO) stood at 1.15.

`CCCCCCCC(=O)N[C@H](CN1CCCC1)[C@H](O)c1ccc2c(c1)OCCO2`: for the setting “vehicle: DMSO”, the relative cell density was 0.997.

`COC(=O)C1=C(C)NC(C)=C(C(=O)OC)C1c1ccccc1[N+](=O)[O-]`: the relative cell density (vehicle: DMSO) is 0.973.

For the compound `C#C[C@]1(O)CC[C@H]2[C@@H]3CCC4=CC(=O)CC[C@@H]4[C@H]3CC[C@@]21C`, the relative cell density (vehicle: DMSO) worked out at 0.878.

As for `C=CCc1cc(OC)c(O)c(C(=O)NCCO)c1`, the relative cell density (vehicle: DMSO) turned out to be 1.17.

As to `Nc1ccc(S(=O)(=O)Nc2ncccn2)cc1`, the relative cell density (vehicle: DMSO) was 1.23 and 1.04.

Turning to `C#C[C@]1(OC(C)=O)CC[C@H]2[C@@H]3CCC4=C[C@@H](OC(C)=O)CC[C@@H]4[C@H]3CC[C@@]21C`, for the setting “vehicle: DMSO”, the relative cell density came to 0.144.

In the case of `O=C1C(CC[S+]([O-])c2ccccc2)C(=O)N(c2ccccc2)N1c1ccccc1` (stereo unspecified), the relative cell density (vehicle: DMSO) was 1.25.

The compound `C[C@@H]1CC(=O)NN=C1c1ccc(NN=C(C#N)C#N)cc1` gave a relative cell density (vehicle: DMSO) of 1.17.

Compound `O=C(Nc1cc(Cl)cc(Cl)c1O)c1c(O)c(Cl)cc(Cl)c1Cl` gave a relative cell density (vehicle: DMSO) of 1.11.

As to `O=C(O)Cc1ccccc1Nc1c(Cl)cccc1Cl`, the relative cell density (vehicle: DMSO) was 0.96 and 0.817 and 1.2.

Regarding `C[C@@H](c1ncncc1F)[C@](O)(Cn1cncn1)c1ccc(F)cc1F`, the relative cell density (vehicle: DMSO) was determined as 1.43.

Consider `O=c1[nH]cc(F)c(=O)[nH]1`, for which the relative cell density (vehicle: DMSO) worked out at 1.11.

For the setting “vehicle: DMSO”, `C[C@]12C=CC(=O)C=C1CC[C@@H]1[C@@H]2[C@@H](O)C[C@@]2(C)[C@H]1CC[C@]2(O)C(=O)CO` returned a relative cell density of 1.03.

`CS(=O)(=O)c1ccc([C@@H](O)[C@@H](CO)NC(=O)C(Cl)Cl)cc1` registered a relative cell density (vehicle: DMSO) of 1.22.

`Cc1cncc(CN2CCC(=C3c4ccc(Cl)cc4CCc4cccnc43)CC2)c1`: the relative cell density (vehicle: DMSO) was determined as 0.928.

Compound `CC(=O)Oc1cc(C(F)(F)F)ccc1C(=O)O` yielded a relative cell density (vehicle: DMSO) of 1.07.

Where the note is “vehicle: DMSO”, `CNC(=O)c1ccc2cc([C@@]3(O)CCn4cncc43)ccc2c1` showed a relative cell density of 1.05.

Take `CNC(=C[N+](=O)[O-])NCCSCc1ccc(CN(C)C)o1`: the relative cell density (vehicle: DMSO) was 1.09.

Where the note is “vehicle: DMSO”, `O=c1c(-c2ccc(O)cc2)coc2cc(O)cc(O)c12` had a relative cell density of 1.04.

Consider `N[C@@H]1CN(c2c(F)cc3c(=O)c(C(=O)O)cn([C@@H]4C[C@@H]4F)c3c2Cl)CC12CC2`, for which the relative cell density (vehicle: Water) was 0.79.

`CNC[C@H](O)c1cccc(O)c1`: under “vehicle: DMSO”, the relative cell density came out at 1.3.

`CCC(=O)NS(=O)(=O)c1ccc(-c2c(-c3ccccc3)noc2C)cc1` gave a relative cell density (vehicle: DMSO) of 1.25.

Under “vehicle: DMSO”, `N#C[C@@H]1CCCN1C(=O)CNC12CC3CC(CC(O)(C3)C1)C2` gave a relative cell density of 1.

As to `CC(C)(CO)[C@@H](O)C(=O)NCCCO`, where the note is “vehicle: DMSO”, the relative cell density came to 0.955.

For the compound `CC(C)C[C@H](NC(=O)CNC(=O)c1cc(Cl)ccc1Cl)B(O)O`, under “vehicle: DMSO”, the relative cell density was 0.265.

`NS(=O)(=O)c1ccc(C(=O)O)cc1`: under “vehicle: DMSO”, the relative cell density was found to be 1.27.

The compound `CO[C@H]1C[C@@H]2CC[C@@H](C)[C@@](O)(O2)C(=O)C(=O)N2CCCC[C@H]2C(=O)O[C@H]([C@H](C)C[C@@H]2CC[C@@H](O)[C@H](OC)C2)CC(=O)[C@H](C)/C=C(\C)[C@@H](O)[C@@H](OC)C(=O)[C@H](C)C[C@H](C)/C=C/C=C/C=C/1C` returned a relative cell density (vehicle: DMSO) of 0.672.

With `Cc1[nH]c(/C=C2\C(=O)Nc3ccccc32)c(C)c1CCC(=O)O`, the relative cell density (vehicle: DMSO) worked out at 0.886.

Regarding `CN(CCOc1ccc(NS(C)(=O)=O)cc1)CCc1ccc(NS(C)(=O)=O)cc1`, the relative cell density (vehicle: DMSO) stood at 1.2.

For `CC(=O)N1CCN(c2ccc(OCC3COC(Cn4ccnc4)(c4ccc(Cl)cc4Cl)O3)cc2)CC1` (stereo unspecified), where the note is “vehicle: Water”, the relative cell density is 1.13.

`CC(C)NCC(O)c1ccc(NS(C)(=O)=O)cc1` (stereo unspecified) yielded a relative cell density (vehicle: DMSO) of 1.29.

For `C#C[C@]1(O)CC[C@H]2[C@@H]3CCc4cc(OC)ccc4[C@H]3CC[C@@]21C`, the relative cell density (vehicle: DMSO) was determined as 1.2.

Regarding `C1=N/C2=N/c3ccc(OCCN4CCCC4)c(c3)COC/C=C/COCc3cccc(c3)C(=C1)N2`, for the setting “vehicle: DMSO”, the relative cell density stood at 0.503.

Take `COc1ccc2cccc(CCNC(C)=O)c2c1`: the relative cell density (vehicle: DMSO) worked out at 0.998.

For the compound `O=C(O)P(=O)(O)O`, the relative cell density (vehicle: DMSO) amounted to 0.98.

Consider `Cc1nc(C)c(Cl)c(O)c1Cl`, for which the relative cell density (vehicle: Water) is 1.17.

`CCn1cc(C(=O)O)c(=O)c2cc(F)c(N3CCNCC3)nc21`: the relative cell density (vehicle: DMSO) is 1.15 and 1.06.

`CC(=O)OCC(=O)NCCCOc1cccc(CN2CCCCC2)c1` came in with a relative cell density (vehicle: DMSO) of 1.21.

With `C[C@H](NCc1ccc(OCc2cccc(F)c2)cc1)C(N)=O`, the relative cell density (vehicle: DMSO) was 1.34.

As to `OC[C@@H](O)[C@@H](O)[C@H](O)[C@H](O)CO`, the relative cell density (vehicle: DMSO) was determined as 1.23.

`Oc1ccc(C2CNCCc3c2cc(O)c(O)c3Cl)cc1` (stereo unspecified) had a relative cell density (vehicle: DMSO) of 1.37.

As for `CC(C(=O)O)c1cccc(Oc2ccccc2)c1` (stereo unspecified), the relative cell density (vehicle: DMSO) is 1.6 and 1.13.

In turn, `CCCc1ncc(C[n+]2ccccc2C)c(N)n1` had a relative cell density (vehicle: Water) of 0.94.

`Nc1ccc(S(=O)(=O)NC(=O)c2ccccc2)cc1`: the relative cell density (vehicle: DMSO) worked out at 1.39.

With `C[N+](C)(C)CCOP(=O)(O)OP(=O)([O-])OC[C@H]1O[C@@H](n2ccc(N)nc2=O)[C@H](O)[C@@H]1O`, the relative cell density (vehicle: Water) was 0.968.

As for `CCCCCOc1ccc(-c2ccc(-c3ccc(C(=O)N[C@H]4C[C@@H](O)[C@@H](O)NC(=O)[C@@H]5[C@@H](O)[C@@H](C)CN5C(=O)[C@H]([C@@H](C)O)NC(=O)[C@H]([C@H](O)[C@@H](O)c5ccc(O)cc5)NC(=O)[C@@H]5C[C@@H](O)CN5C(=O)[C@H]([C@@H](C)O)NC4=O)cc3)cc2)cc1` ({pTerphenylCO(4''-OnC5H11)}-[Orn(4R-OH,5R-OH)]T[Hyp][hTyr(3S-OH,4S-OH)]T[Pro(3S-OH,4S-Me)]; lactam 1-C), the relative cell density (vehicle: DMSO) was 0.942.

`CC(C)c1nc(N(C)S(C)(=O)=O)nc(-c2ccc(F)cc2)c1/C=C/[C@@H](O)C[C@@H](O)CC(=O)O` had a relative cell density (vehicle: DMSO) of 1.06.

As to `CCCOC(C(=O)OC1CCN(C)CC1)(c1ccccc1)c1ccccc1`, the relative cell density (vehicle: DMSO) came to 1.1.

On to `CCOCCn1c(C2CCN(CCc3ccc(C(C)(C)C(=O)O)cc3)CC2)nc2ccccc21`, for which the relative cell density (vehicle: Water) is 0.941.

`CCN(CC)CCCC(C)Nc1ccnc2cc(Cl)ccc12` (stereo unspecified) returned a relative cell density (vehicle: Water) of 0.698.

For the setting “vehicle: DMSO”, `CS(=O)(=O)c1ccc([C@@H](O)[C@@H](CF)NC(=O)C(Cl)Cl)cc1` yielded a relative cell density of 0.936.

Take `C[C@@H](O)[C@H]1C(=O)N2C(C(=O)O)=C(SCCNC=N)C[C@H]12`: where the note is “vehicle: Water”, the relative cell density came out at 0.934.

Turning to `c1ccc2c(c1)CCCC2C1=NCCN1` (stereo unspecified), the relative cell density (vehicle: DMSO) was 1.03.

Under “vehicle: DMSO”, `COc1cccc(CCc2ccccc2OCC(CN(C)C)OC(=O)CCC(=O)O)c1` (stereo unspecified) showed a relative cell density of 1.

Compound `CC(C)OC(=O)C(C(=O)OC(C)C)=C1SC=CS1` displayed a relative cell density (vehicle: DMSO) of 1.14.

`C1N2CN3CN1CN(C2)C3` showed a relative cell density (vehicle: DMSO) of 1.01.

Consider `CCCCCN(C)CCC(O)(P(=O)(O)O)P(=O)(O)O`, for which, for the setting “vehicle: Water”, the relative cell density stood at 0.807.

As for `N[C@@H](CS)C(=O)O`, the relative cell density (vehicle: DMSO) was found to be 1.32.

Consider `CCOC(=O)N1CCC(=C2c3ccc(Cl)cc3CCc3cccnc32)CC1`, for which the relative cell density (vehicle: DMSO) stood at 1.08.

Turning to `Nc1nc(F)nc2c1ncn2[C@@H]1O[C@H](COP(=O)(O)O)[C@@H](O)[C@@H]1O`, for the setting “vehicle: DMSO”, the relative cell density was 0.958.

These data come from the supplement of paper PMC9226226.
